Assay results as given in paper PMC2639639, “Identification of Three Classes of Heteroaromatic Compounds with Activity against Intracellular Trypanosoma cruzi by Chemical Library Screening” (PLoS Neglected Tropical Diseases, 2009).

Tests used:
[1] = test system: NIH/3T3 cells; assay: Cytotoxicity assay (Alamar Blue) on NIH/3T3 cells; assay type: cell-based; conditions: TC50 NIH/3T3 4 days / IC50 intracellular growth
Procedure: (§1) Cells (NIH/3T3 or HepG2) were washed and plated at a density of 50,000 cells/well of 96-well plates in 200 µl and allowed to adhere for 3 h. Twenty-four hour assays were done in DMEM without phenol red supplemented with 10% FBS and Pen-Strep-Glut, while 4-day assays were done in the same medium containing 2% FBS. Drugs were added and mixed. After 1 or 4 days, 20 µl of Alamar Blue (Biosource, Invitrogen) was added. Plates were incubated for 4 h (HepG2) or 6 h (NIH/3T3) at 37°C and fluorescence was read using a Labsystems Fluoroskan II plate reader (excitation: 544 nm, emission: 590 nm) .
(§2) To determine TC50 values, fluorescence was plotted against inhibitor concentration. TC50 was determined as the concentration at which cytotoxicity (fluorescence) was half that in the absence of inhibitor.

[2] = test system: HepG2 cells; assay: Cytotoxicity assay (Alamar Blue) on HepG2 cells; assay type: cell-based, human
Procedure: as §1, §2

[3] = test system: T. cruzi (Tulahuen strain) expressing β-galactosidase; assay: T. cruzi growth inhibition assay (β-gal activity, infection of NIH/3T3 cells); assay type: cell-based, Trypanosoma cruzi
Procedure: NIH/3T3 cells and parasites were harvested, washed once and resuspended in DMEM supplemented with 2% FBS and Pen-Strep-Glut. […] Different numbers of NIH/3T3 cells were seeded in 96-well plates. After 3 h, compounds were added at the indicated concentrations and mixed by pipetting. BZN tablets (Rochagan, Roche) dissolved in DMSO and 4 µM Amphotericin B solution (Sigma-Aldrich) were used as positive controls. Different numbers of T. cruzi parasites were added in a final volume of 200 µl/well. After 4 days, 50 µl of PBS containing 0.5% of the detergent NP40 and 100 µM Chlorophenol Red-β-D-galactoside (CPRG) (Fluka) were added. Plates were incubated at 37°C for 4 h and absorbance was read at 590 nm using a Tecan Spectra Mini plate reader.
To calculate the Z′ factor, we used the formula described by Zhang et al.: Z′ = 1−[(3σc++3σc−) / |μc+−μc−|] where σc+ = standard deviation (SD) of positive control, σc− = SD of negative control, μc+ = mean of positive control, μc− = mean of negative control. Subsequently, the best ratio was used for all growth inhibition assays (50.000 cells and parasites, multiplicity of infection (MOI) 1∶1).
To determine IC50 values, β-gal activity (Abs590) was plotted against compound concentration for each compound. The IC50 was determined as the concentration at which the activity (absorbance) was half that in the absence of compound. […]

Compound | Ratio of TC50 to IC50 (NIH/3T3 cells at 4 days) [1] | Ratio of TC50 to IC50, HepG2 ([2]; 24 h (1 day)) | Ratio of TC50 to IC50, HepG2 ([2]; 4 days) | Ratio of TC50 to IC50 (HepG2 cells at 24 h) ([2]; TC50 HepG2 24 h / IC50 intracellular growth) | Ratio of TC50 to IC50 (HepG2 cells at 4 days) ([2]; TC50 HepG2 4 days / IC50 intracellular growth) | Increase in IC50 relative to PCH1 [3]
O=C(Cn1cnc([N+](=O)[O-])n1)Nc1cc(Oc2cccc(C(F)(F)F)c2)cc([N+](=O)[O-])c1 [NT1, 2-(3-nitro-1H-1,2,4-triazol-1-yl)-N-{3-nitro-5-[3-(trifluoromethyl)phenoxy]phenyl}acetamide] | ^*74× | more than 150 fold | 40 fold | ^*160× | ^*40× | 
O=C(NN=Cc1ccc(-c2cccc(Cl)c2Cl)o1)c1cccnc1 [PCH2, N′-{[5-(2,3-dichlorophenyl)-2-furyl]methylene}nicotinohydrazide] |  |  |  |  |  | 35 fold
O=C(NN=Cc1ccc(-c2cccc(Cl)c2Cl)o1)c1ccncc1 [PCH3, N′-{[5-(2,3-dichlorophenyl)-2-furyl]methylene}isonicotinohydrazide] |  |  |  |  |  | > 200 fold
